Results taken from PubChem BioAssay AID246 (DTP/NCI, 2004).
The list is a part of this screen's results and no random one: it is rich in T/C values a quarter to a half above the control, in often repeated tests (any T/C) and in doses without a T/C. Further doses and runs are listed elsewhere. T/C is the treated group as % of the vehicle group. Some doses have a count of surviving animals in place of a T/C: the source holds a T/C of zero for them, seemingly a mark for toxic or unscored doses. Some survivor counts are full or nearly so, which does not show that the dose was tolerated: survival well below the control is almost never listed, so the zero probably covers shortened survival too. Counts of survivors are from the toxicity check (mostly the fifth day) where no day follows; animals may have died later. Schedules are NCI's codes, read here as Q, the interval in days (D) or hours (H), X, the number of doses. Some schedules carry Z or #; the key to these is not given. Some entries hold several experiments; their values stand side by side, smallest first. For survival time, this PubChem deposit counts one and a half times the control or more as active, and values a quarter to a half above the control carry no call in these data; other NCI protocols may use other cut-offs. Some T/C values are followed by the survivors on the day toxicity was checked, most often the fifth; without a count, all were alive then.

System: BDF1 mice, P1081 chloroleukemia ip, survival T/C
Test: NCI In Vivo Anticancer Drug Screen. Data for tumor model P1081 Chloroleukemia (intraperitoneal) in B6D2F1 (BDF1) mice
Conditions: T/C endpoint: mean survival time, higher T/C = longer survival
Experimental: The antitumor activity of compounds was measured in mice bearing transplantable tumors. Survival or tumor size were measured and the results are expressed as the measurement made in the treated group (T) divided by the measurement made in the vehicle treated control group (C). The tumor model used in this assay is P1081 Chloroleukemia (intraperitoneal) in B6D2F1 (BDF1) mice

[1] = dose: 25.0 mg/kg/injection, schedule: Q01DX010 (ip), vehicle: saline
[2] = dose: 50.0 mg/kg/injection, schedule: Q01DX010 (ip), vehicle: saline
[3] = dose: 100.0 mg/kg/injection, schedule: Q01DX010 (ip), vehicle: saline
[4] = dose: 200.0 mg/kg/injection, schedule: Q01DX010 (ip), vehicle: saline

For CC(=O)[C@H]1CC[C@H]2[C@@H]3C[C@H](C)C4=CC(=O)CC[C@]4(C)[C@H]3C(=O)C[C@]12C, the survivor count (dose: 400.0 mg/kg/injection, schedule: Q01DX Z (sc), vehicle: steroid suspending solution) was 3 of 6 and the survivor count (dose: 800.0 mg/kg/injection, schedule: Q01DX Z (sc), vehicle: steroid suspending solution) was 5 of 6.
For CCOC(N)=O, the survivor count (dose: 31.25 mg/kg/injection, schedule: Q01DX Z (ip), vehicle: saline) was 6 of 6, the survivor count (dose: 62.5 mg/kg/injection, schedule: Q01DX Z (ip), vehicle: saline) was 6 of 6 and the survivor count (dose: 1000.0 mg/kg/injection, schedule: Q01DX010 (ip), vehicle: saline) was 6 of 6. The survivor count (dose: 1000.0 mg/kg/injection, schedule: Q01DX Z (ip), vehicle: saline) was 6 of 6.
In the case of Clc1ccc(C(c2ccccc2Cl)C(Cl)Cl)cc1 (configuration not stated), the T/C (dose: 0.4 mg/kg/injection, schedule: Q01DX Z (sc), vehicle: steroid suspending solution) was 130 % of control, the T/C (dose: 1.6 mg/kg/injection, schedule: Q01DX Z (sc), vehicle: steroid suspending solution) was 132 and 139 % of control and the T/C (dose: 3.1 mg/kg/injection, schedule: Q01DX Z (sc), vehicle: steroid suspending solution) was 125 % of control. For the same compound, the T/C (dose: 6.25 mg/kg/injection, schedule: Q01DX Z (sc), vehicle: steroid suspending solution) was 128 and 137 % of control and the survivor count (dose: 200.0 mg/kg/injection, schedule: Q01DX Z (sc), vehicle: steroid suspending solution) was 6 of 6.
In the case of N[C@@H](Cc1ccc(N(CCCl)CCCl)cc1)C(=O)O, the T/C (dose: 0.16 mg/kg/injection, schedule: Q01DX Z (ip), vehicle: saline) was 138 % of control, the survivor count (dose: 20.0 mg/kg/injection, schedule: Q01DX Z (ip), vehicle: saline) was 6 of 6 and the survivor count (dose: 40.0 mg/kg/injection, schedule: Q01DX Z (ip), vehicle: saline) was 6 of 6.
For C=CC(CN1CC1)OC(C)=O (configuration not stated), the T/C (dose: 2.0 mg/kg/injection, schedule: Q01DX010 (ip), vehicle: saline) was 135 % of control, the survivor count (dose: 7.5 mg/kg/injection, schedule: Q01DX Z (ip), vehicle: carboxymethylcellulose (CMC)) was 6 of 6 and the survivor count (dose: 15.0 mg/kg/injection, schedule: Q01DX Z (ip), vehicle: carboxymethylcellulose (CMC)) was 2 of 6.
In the case of CCOC(=O)c1[nH]c2ccccc2c1CN(CCCl)CCCl, the survivor count (dose: 10.0 mg/kg/injection, schedule: Q01DX010 (ip), vehicle: saline) was 6 of 6, the survivor count (dose: 20.0 mg/kg/injection, schedule: Q01DX010 (ip), vehicle: saline) was 6 of 6 and the survivor count (dose: 40.0 mg/kg/injection, schedule: Q01DX010 (ip), vehicle: saline) was 6 of 6. For the same compound, the survivor count (dose: 80.0 mg/kg/injection, schedule: Q01DX010 (ip), vehicle: saline) was 0 of 6.
In the case of COc1cc(-c2ccc(Nc3ccccc3C(=O)O)c(OC)c2)ccc1Nc1ccccc1C(=O)O, the T/C [1] was 144 % of control, the T/C [2] was 133 and 138 % of control and the T/C [3] was 127 and 133 % of control [5 of 6 alive]. For the same compound, the survivor count [4] was 2 of 6.
In the case of CC(CCC(C)OS(C)(=O)=O)OS(C)(=O)=O (configuration not stated), the T/C (dose: 32.0 mg/kg/injection, schedule: Q01DX010 (ip), vehicle: saline) was 135 % of control and the survivor count (dose: 80.0 mg/kg/injection, schedule: Q01DX Z (ip), vehicle: carboxymethylcellulose (CMC)) was 6 of 6.
With CSCS(=O)C[C@H](CO)NC(=O)/C=C/c1c(C)[nH]c(=O)[nH]c1=O (some centres not stated) the survivor count (dose: 2.0 mg/kg/injection, schedule: Q01DX Z (ip), vehicle: saline) was 2 of 6.
CSc1ncnc2nc[nH]c12 was tested, and the T/C [1] was 125 % of control, the survivor count (dose: 25.0 mg/kg/injection, schedule: Q01DX Z (ip), vehicle: carboxymethylcellulose (CMC)) was 6 of 6 and the T/C [2] was 125 % of control. For the same compound, the survivor count (dose: 400.0 mg/kg/injection, schedule: Q01DX Z (ip), vehicle: carboxymethylcellulose (CMC)) was 1 of 6.
In the case of CC/C(=C(/CC)c1ccc(O)cc1)c1ccc(O)cc1, the survivor count (dose: 31.0 mg/kg/injection, schedule: Q01DX Z (sc), vehicle: steroid suspending solution) was 6 of 6, the survivor count (dose: 62.0 mg/kg/injection, schedule: Q01DX Z (sc), vehicle: steroid suspending solution) was 6 of 6 and the survivor count [3] was 6 of 6. The survivor count (dose: 125.0 mg/kg/injection, schedule: Q01DX Z (sc), vehicle: steroid suspending solution) was 6 of 6, the survivor count (dose: 250.0 mg/kg/injection, schedule: Q01DX Z (sc), vehicle: steroid suspending solution) was 6 of 6 and the survivor count (dose: 500.0 mg/kg/injection, schedule: Q01DX Z (sc), vehicle: steroid suspending solution) was 4 of 6. The survivor count (dose: 1000.0 mg/kg/injection, schedule: Q01DX Z (sc), vehicle: steroid suspending solution) was 5 of 6.
For Nc1nc(=S)c2ncn(C3OC(CO)C(O)C3O)c2[nH]1 (configuration not stated), the T/C (dose: 1.25 mg/kg/injection, schedule: Q01DX Z (ip), vehicle: carboxymethylcellulose (CMC)) was 142 % of control, the T/C (dose: 2.5 mg/kg/injection, schedule: Q01DX Z (ip), vehicle: carboxymethylcellulose (CMC)) was 142 % of control and the T/C (dose: 8.0 mg/kg/injection, schedule: Q01DX010 (ip), vehicle: saline) was 133 % of control. The survivor count (dose: 10.0 mg/kg/injection, schedule: Q01DX Z (ip), vehicle: carboxymethylcellulose (CMC)) was 5 of 6 and 6 of 6, the T/C (dose: 16.0 mg/kg/injection, schedule: Q01DX010 (ip), vehicle: saline) was 138 % of control and the survivor count (dose: 20.0 mg/kg/injection, schedule: Q01DX Z (ip), vehicle: carboxymethylcellulose (CMC)) was 6 of 6. The survivor count (dose: 40.0 mg/kg/injection, schedule: Q01DX Z (ip), vehicle: carboxymethylcellulose (CMC)) was 6 of 6.
For CC(=O)OCC1OC(n2ncc(=O)[nH]c2=O)C(OC(C)=O)C1OC(C)=O (configuration not stated), the T/C (dose: 937.5 mg/kg/injection, schedule: Q01DX Z (ip), vehicle: alkali diluted with saline) was 127 % of control and the survivor count (dose: 7500.0 mg/kg/injection, schedule: Q01DX Z (ip), vehicle: alkali diluted with saline) was 0 of 6.
In the case of CCN(CC)CCNc1ccc(C)c2sc3ccccc3c(=O)c12, the survivor count (dose: 0.78 mg/kg/injection, schedule: Q01DX Z (ip), vehicle: methylcellulose (MC)) was 6 of 6, the survivor count (dose: 3.12 mg/kg/injection, schedule: Q01DX Z (ip), vehicle: methylcellulose (MC)) was 6 of 6 and the survivor count (dose: 6.25 mg/kg/injection, schedule: Q01DX Z (ip), vehicle: methylcellulose (MC)) was 6 of 6. For the same compound, the survivor count (dose: 12.5 mg/kg/injection, schedule: Q01DX Z (ip), vehicle: methylcellulose (MC)) was 6 of 6, the survivor count (dose: 25.0 mg/kg/injection, schedule: Q01DX Z (ip), vehicle: methylcellulose (MC)) was 6 of 6 and the T/C [2] was 125 % of control. The survivor count (dose: 50.0 mg/kg/injection, schedule: Q01DX Z (ip), vehicle: methylcellulose (MC)) was 6 of 6, the survivor count (dose: 100.0 mg/kg/injection, schedule: Q01DX Z (ip), vehicle: methylcellulose (MC)) was 5 of 6 and the survivor count [4] was 6 of 6. The survivor count (dose: 200.0 mg/kg/injection, schedule: Q01DX Z (ip), vehicle: methylcellulose (MC)) was 2 of 6.
In the case of COc1cc2c(c(OC)c1OC)-c1ccc(OC)c(=O)cc1[C@@H](NC(C)=O)CC2, the T/C (dose: 0.31 mg/kg/injection, schedule: Q01DX Z (ip), vehicle: saline) was 135 % of control, the survivor count (dose: 1.2 mg/kg/injection, schedule: Q01DX Z (ip), vehicle: saline) was 3 of 6 and the survivor count (dose: 2.5 mg/kg/injection, schedule: Q01DX Z (ip), vehicle: saline) was 0 of 6. The survivor count (dose: 5.0 mg/kg/injection, schedule: Q01DX Z (ip), vehicle: saline) was 0 of 6.
